Results published in PMC7053155.
These are yes or no findings as the source states them, for the method shown. Binding can be weak; no strength is given.

Biological target: ZjMAPKK4 (Ziziphus jujuba Mill. (Chinese jujube))
Test: two-hybrid; ZjCNGC2 fused to Gal4 AD (pGADT7), ZjMAPKs/ZjMAPKKs fused to Gal4 BD (pGBKT7); co-transformed into yeast AH109; selection on -LW, -LWH, -LWH + 7 mM 3-AT and -LWAH media

B1: ZjCNGC2 (cyclic nucleotide gated channel 2 of Chinese jujube, Ziziphus jujuba Mill.) (protein, UniProt A0AC41Z618 1-727)
chain: MNSKGPKFVRFEDWKSEISVSYERESPTSNDGSYPGKAREHVKGVLRNIGRGFKRCYESIRSLRTKTLSSRTTYATKRPEKDAASKKKIFDPQGAFLQQWNKIFVLSCVIAISLDPLFLYIPTIDTNQQCLSLDTPLEITACVLRTFTDIFYVVHIIFQFRTGFIAPSSRVFGRGELIDDPVAIAKRYLSTYFIIDVLAILPLPQVVVLIVIPQIKGPVALVTKDILEYVIFCQYVPRLIRIIPLYREVTRTSGLFTETAWAGAAFNLFLYMLASHVAGAVWYLLAIERADRCWHDQFKNKPWDHSYLYCGEDRKDLPIADISLALNTSCPFIDPDEIKNSGIFNFGIFADALTSGIVDYDDFSTKIFYCFWWGLRNLSSLGQNLKTSTFVGEIIFAVCIAVFGLVLFSLLIGNMQKYLQSTTVRVEEMRVRRRDAEQWMTHRMLPPNLKERIKRYEQYKWQETRGADEDNLIRNLPKDLRRDIKRHLCLSLLTRVPMFEKMDEQLLDALCDRLKPVLYTEKSFVLREGDPVDEMVFIMRGNLATMTTNGGRTGFFNSVDLKAGDFCGEELLTWALDPNSATSLPTSTRTVEALTEVEAFALMADDLKFVASQFRRLHSKQLRHDFRFYSLQWRTWAACFIQVAWRRHCKRKLDKSLREAEDRLQNALANEVGSTPSLGATIYASRFAANALRTMRKNGAVSARPPQRLLPLLPQKPAEPDFTAEGR
With B1 the binding was “binds”.
